In publication PMC5675595:
No constants are given. Whether binding was seen depends on the method and setting. Binding seen in cells or lysates may run through a third protein. A yes stands for co-enrichment or nearness to the bait. Other partners may have been found. Tags and fused reporters may be left off the sequences shown.

By UniProt entry, the sequences of proteins in these tests, tags left out.
UniProt Q92973: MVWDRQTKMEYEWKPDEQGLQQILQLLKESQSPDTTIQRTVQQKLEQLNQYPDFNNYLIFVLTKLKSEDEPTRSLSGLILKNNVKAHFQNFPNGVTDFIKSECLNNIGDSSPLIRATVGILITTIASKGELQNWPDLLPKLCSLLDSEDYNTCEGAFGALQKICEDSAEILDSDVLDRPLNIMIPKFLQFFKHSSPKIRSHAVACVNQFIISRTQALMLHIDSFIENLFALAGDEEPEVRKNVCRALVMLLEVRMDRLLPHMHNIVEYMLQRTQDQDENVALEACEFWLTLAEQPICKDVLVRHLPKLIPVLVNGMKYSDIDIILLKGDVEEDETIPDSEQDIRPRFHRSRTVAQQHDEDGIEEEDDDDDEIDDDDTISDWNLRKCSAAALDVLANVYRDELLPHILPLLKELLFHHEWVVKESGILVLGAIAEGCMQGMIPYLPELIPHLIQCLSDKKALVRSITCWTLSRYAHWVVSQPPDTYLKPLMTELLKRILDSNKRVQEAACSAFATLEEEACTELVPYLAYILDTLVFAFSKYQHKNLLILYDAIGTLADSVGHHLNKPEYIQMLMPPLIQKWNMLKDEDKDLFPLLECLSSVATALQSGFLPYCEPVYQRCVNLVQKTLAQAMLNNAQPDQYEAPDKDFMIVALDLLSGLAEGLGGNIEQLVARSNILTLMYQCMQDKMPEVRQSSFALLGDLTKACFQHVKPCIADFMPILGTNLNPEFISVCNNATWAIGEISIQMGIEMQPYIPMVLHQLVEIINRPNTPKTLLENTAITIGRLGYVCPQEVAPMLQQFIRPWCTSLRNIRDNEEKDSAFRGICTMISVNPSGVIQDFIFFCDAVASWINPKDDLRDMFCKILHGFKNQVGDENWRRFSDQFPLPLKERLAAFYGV

Target: T1, HA-tagged IRAK2 (UniProt Q8CFA1)
T1 sequence: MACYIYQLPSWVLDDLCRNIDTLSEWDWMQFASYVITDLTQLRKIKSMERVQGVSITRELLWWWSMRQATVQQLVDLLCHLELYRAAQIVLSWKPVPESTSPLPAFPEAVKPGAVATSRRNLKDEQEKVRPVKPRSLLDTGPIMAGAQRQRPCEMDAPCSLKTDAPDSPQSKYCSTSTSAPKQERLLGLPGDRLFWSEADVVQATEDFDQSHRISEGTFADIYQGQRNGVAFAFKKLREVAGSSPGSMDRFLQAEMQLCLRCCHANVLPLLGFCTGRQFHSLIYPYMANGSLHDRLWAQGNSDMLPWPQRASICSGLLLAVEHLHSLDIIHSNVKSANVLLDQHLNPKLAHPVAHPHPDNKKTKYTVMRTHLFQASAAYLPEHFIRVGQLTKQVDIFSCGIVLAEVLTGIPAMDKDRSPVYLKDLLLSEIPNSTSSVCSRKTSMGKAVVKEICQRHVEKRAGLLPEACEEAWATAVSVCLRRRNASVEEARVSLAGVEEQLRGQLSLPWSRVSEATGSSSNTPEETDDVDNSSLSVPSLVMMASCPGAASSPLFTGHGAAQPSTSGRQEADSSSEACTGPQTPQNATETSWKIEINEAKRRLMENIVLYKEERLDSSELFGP
Test: affinity purification with mass spectrometry; IL1R-293 cells transiently transfected with HA-tagged IRAK2 and treated by IL-1; anti-HA immunoprecipitation; mass spectrometry of the precipitate

For “Importin-β-2 (from UniProt Q92973 1-898)”, the binding was “binds”.
